Literature values in patent US9493429B2, “Substituted benzoxazoles and methods of use thereof” (GENENTECH, INC., priority 2013, dated 2016).

Conditions: administered topically (Lidoderm patch)

In the case of `CCN(CC)CC(=O)Nc1c(C)cccc1C` [lidocaine], the plasma concentrations is given as “about 1 μM”.
